Source: patent US20250283871A1, “COMPOSITIONS AND METHODS FOR MODULATING THE INTERACTION BETWEEN SS18-SSX FUSION ONCOPROTEIN AND NUCLEOSOMES” (Dana-Farber Cancer Institute, Inc., priority 2020, published 2025)

B1: NOC4L (protein, UniProt Q9BVI4 1-516, looked up)
Nucleolar complex protein 4 …: MEREPGAAGVRRALGRRLEAVLASRSEANAVFDILAVLQSEDQEEIQEAVRTCSRLFGALLERGELFVGQLPSEEMVMTGSQGATRKYKVWMRHRYHSCCNRLGELLGHPSFQVKELALSALLKFVQLEGAHPLEKSKWEGNYLFPRELFKLVVGGLLSPEEDQSLLLSQFREYLDYDDTRYHTMQAAVDAVARVTGQHPEVPPAFWNNAFTLLSAVSLPRREPTVSSFYVKRAELWDTWKVAHLKEHRRVFQAMWLSFLKHKLPLSLYKKVLLIVHDAILPQLAQPTLMIDFLTRACDLGGALSLLALNGLFILIHKHNLEYPDFYRKLYGLLDPSVFHVKYRARFFHLADLFLSSSHLPAYLVAAFAKRLARLALTAPPEALLMVLPFICNLLRRHPACRVLVHRPHGPELDADPYDPGEEDPAQSRALESSLWELQALQRHYHPEVSKAASVINQALSMPEVSIAPLLELTAYEIFERDLKKKGPEPVPLEFIPAQGLLGRPGELCAQHFTLS
B2: EHMT2 (protein, UniProt Q96KQ7 2-1210, looked up)
Histone-lysine …: AAAAGAAAAAAAEGEAPAEMGALLLEKETRGATERVHGSLGDTPRSEETLPKATPDSLEPAGPSSPASVTVTVGDEGADTPVGATPLIGDESENLEGDGDLRGGRILLGHATKSFPSSPSKGGSCPSRAKMSMTGAGKSPPSVQSLAMRLLSMPGAQGAAAAGSEPPPATTSPEGQPKVHRARKTMSKPGNGQPPVPEKRPPEIQHFRMSDDVHSLGKVTSDLAKRRKLNSGGGLSEELGSARRSGEVTLTKGDPGSLEEWETVVGDDFSLYYDSYSVDERVDSDSKSEVEALTEQLSEEEEEEEEEEEEEEEEEEEEEEEEDEESGNQSDRSGSSGRRKAKKKWRKDSPWVKPSRKRRKREPPRAKEPRGVNGVGSSGPSEYMEVPLGSLELPSEGTLSPNHAGVSNDTSSLETERGFEELPLCSCRMEAPKIDRISERAGHKCMATESVDGELSGCNAAILKRETMRPSSRVALMVLCETHRARMVKHHCCPGCGYFCTAGTFLECHPDFRVAHRFHKACVSQLNGMVFCPHCGEDASEAQEVTIPRGDGVTPPAGTAAPAPPPLSQDVPGRADTSQPSARMRGHGEPRRPPCDPLADTIDSSGPSLTLPNGGCLSAVGLPLGPGREALEKALVIQESERRKKLRFHPRQLYLSVKQGELQKVILMLLDNLDPNFQSDQQSKRTPLHAAAQKGSVEICHVLLQAGANINAVDKQQRTPLMEAVVNNHLEVARYMVQRGGCVYSKEEDGSTCLHHAAKIGNLEMVSLLLSTGQVDVNAQDSGGWTPIIWAAEHKHIEVIRMLLTRGADVTLTDNEENICLHWASFTGSAAIAEVLLNARCDLHAVNYHGDTPLHIAARESYHDCVLLFLSRGANPELRNKEGDTAWDLTPERSDVWFALQLNRKLRLGVGNRAIRTEKIICRDVARGYENVPIPCVNGVDGEPCPEDYKYISENCETSTMNIDRNITHLQHCTCVDDCSSSNCLCGQLSIRCWYDKDGRLLQEFNKIEPPLIFECNQACSCWRNCKNRVVQSGIKVRLQLYRTAKMGWGVRALQTIPQGTFICEYVGELISDAEADVREDDSYLFDLDNKDGEVYCIDARYYGNISRFINHLCDPNIIPVRVFMLHQDLRFPRIAFFSSRDIRTGEELGFDYGDRFWDIKSKYFTCQCGSEKCKHSAEAIALEQSRLARLDPHPELLPELGSLPPVNT

Test system: BAF complex subunits and histone proteins
Assay: Mass spectrometry proteomics of purified HA-SS18 WT and HA-SS18-SSX1 complexes (Tables 5A-5E)
Design: species or system human
Conditions: HEK-293T; for Total (total peptides) / Unique (unique peptides): HA-SS18SSX1_CHR_peptides: protein identified in the HA-SS18-SSX1 purification from solubilized chromatin (CHR)
[1] = HA-SS18WT_CHR_peptides: HA-SS18 WT purification from nuclease-treated solubilized chromatin (CHR), label = protein identified
[2] = HA-SS18WT_NE_peptides: proteins co-purified with HA-SS18 WT from nuclear extract (NE)

Molecule | Total (total peptides) | Unique (unique peptides) | Total (peptides) [1] | Unique (peptides) [1] | Total (peptides) [2] | Unique (peptides) [2]
B1 | 6 | 6 | 3 | 3 | 1 | 1
B2 | 6 | 6 | 4 | 3 | – | –
